# These are yes or no findings as the source states them, for the method shown. Some results given as binding are weak or reduced against the parent protein; the word gives no strength.
# By UniProt entry, the sequences of proteins in these tests, tags left out.
# UniProt P35637: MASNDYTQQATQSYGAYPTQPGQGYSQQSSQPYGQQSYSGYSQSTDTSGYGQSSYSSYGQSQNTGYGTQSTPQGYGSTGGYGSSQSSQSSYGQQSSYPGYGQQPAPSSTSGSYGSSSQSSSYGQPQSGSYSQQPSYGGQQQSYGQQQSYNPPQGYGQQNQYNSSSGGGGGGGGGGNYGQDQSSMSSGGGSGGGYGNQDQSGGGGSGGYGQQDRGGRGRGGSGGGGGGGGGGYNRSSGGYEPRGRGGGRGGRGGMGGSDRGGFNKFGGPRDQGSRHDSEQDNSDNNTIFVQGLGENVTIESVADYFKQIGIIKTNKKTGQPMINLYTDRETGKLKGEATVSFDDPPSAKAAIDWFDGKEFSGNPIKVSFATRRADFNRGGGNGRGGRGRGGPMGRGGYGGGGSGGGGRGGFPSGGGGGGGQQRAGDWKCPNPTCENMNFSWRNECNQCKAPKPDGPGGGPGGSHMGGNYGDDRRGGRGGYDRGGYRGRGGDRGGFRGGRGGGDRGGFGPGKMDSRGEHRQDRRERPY
# UniProt Q02078: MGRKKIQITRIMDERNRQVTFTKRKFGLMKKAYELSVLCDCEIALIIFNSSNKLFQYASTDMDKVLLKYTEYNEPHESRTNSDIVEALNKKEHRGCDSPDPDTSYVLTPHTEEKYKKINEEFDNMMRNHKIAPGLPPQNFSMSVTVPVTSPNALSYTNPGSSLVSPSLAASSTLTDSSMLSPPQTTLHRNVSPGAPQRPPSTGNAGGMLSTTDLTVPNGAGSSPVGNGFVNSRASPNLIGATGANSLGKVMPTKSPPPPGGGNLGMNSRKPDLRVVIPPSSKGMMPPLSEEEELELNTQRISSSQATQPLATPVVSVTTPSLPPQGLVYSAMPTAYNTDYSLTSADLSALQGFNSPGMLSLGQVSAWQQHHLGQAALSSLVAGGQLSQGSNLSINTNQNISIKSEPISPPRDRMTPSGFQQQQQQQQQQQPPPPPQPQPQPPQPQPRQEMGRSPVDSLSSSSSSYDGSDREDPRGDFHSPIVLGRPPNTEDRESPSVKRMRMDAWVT
# UniProt P41161: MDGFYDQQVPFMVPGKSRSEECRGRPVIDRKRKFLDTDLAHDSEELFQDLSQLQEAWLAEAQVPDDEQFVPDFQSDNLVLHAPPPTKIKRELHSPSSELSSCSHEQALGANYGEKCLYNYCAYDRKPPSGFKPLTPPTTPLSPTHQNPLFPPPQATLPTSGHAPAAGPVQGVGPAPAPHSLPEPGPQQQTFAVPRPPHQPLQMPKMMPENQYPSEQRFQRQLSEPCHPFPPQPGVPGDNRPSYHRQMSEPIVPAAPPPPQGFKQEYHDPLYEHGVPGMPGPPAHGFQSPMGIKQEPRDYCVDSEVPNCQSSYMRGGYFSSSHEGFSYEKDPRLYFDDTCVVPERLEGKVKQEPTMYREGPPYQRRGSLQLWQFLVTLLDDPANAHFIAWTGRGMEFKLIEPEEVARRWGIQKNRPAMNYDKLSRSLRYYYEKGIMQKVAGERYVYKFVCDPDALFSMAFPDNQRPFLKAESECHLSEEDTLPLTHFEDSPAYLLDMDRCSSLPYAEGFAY
# Target: FUS recombinant protein (IP) (UniProt P35637)
# Test: co-IP; recombinant FUS (1 µg) incubated overnight at 4 °C with ETV5-CFP (1 µg) and/or MEF2A-mCherry (1 µg) and FUS antibody (sc-47711) or control IgG in 75 mM Hepes pH 7.3, 100 mM KOAc, 1% NP-40, 2.5% glycerol, 0.5 mM DTT; A/G magnetic beads, washed three times with RIPA; western blot for FUS, ETV5, MEF2A; both purified
row,binding,Substance
1,binds,MEF2A-mCherry (from UniProt Q02078 1-507)
2,binds,ETV5-CFP (from UniProt P41161 1-510)
